# Data taken from the supplement of paper PMC8728848.
# The list shows a part of the results.
# B1: SUN4 (Saccharomyces cerevisiae), P53616 (protein)
# chain: MGSSHHHHHHSSGLVPRGSHNGSIYGDLADFSGPYEKFEDGTIPCGQFPSGQGVIPISWLDEGGWSGVENTDTSTGGSCKEGSYCSYACQPGMSKTQWPSDQPSDGRSIGGLLCKDGYLYRSNTDTDYLCEWGVDAAYVVSELSNDVAICRTDYPGTENMVIPTYVQAGDSLPLTVVDQDTYYTWQGLKTSAQYYVNNAGISVEDACVWGSSSSGVGNWAPLNFGAGSSDGVAYLSLIPNPNNGNALNFNVKIVAADDSSTVNGECIYENGSFSGGSDGCTVSVTAGKAKFVLYN
# How the values were obtained:
# Assay in all cases: glycan array binding signal (z-score within array); higher = stronger binding
# Details in all cases: glycan notation: IUPAC condensed, linker removed
# [1] = target: Fuc(a1-2)[GalNAc(b1-3)]Gal
# Summary of the method: (§1)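 Glycan array binding is given as a within-array Z-score, which can be read as non-binding when negative. The arrays, 3228 of them, came from the Consortium for Functional Glycomics database and were retained only where the protein sequence was available. Z-scores were averaged across arrays of the same protein sequence at different concentrations or buffers and across linkers.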
# Fuc(a1-3)GlcNAc = target: Fuc(a1-3)GlcNAc
# Summary of the method: as §1
# [2] = target: Fuc(a1-3)[Gal(b1-4)]Glc6S
# Summary of the method: as §1
# [3] = target: Fuc(a1-3)[Gal(b1-4)]GlcNAc
# Summary of the method: as §1
# [4] = target: Fuc(a1-3)[Gal(b1-4)]GlcNAc(b1-2)Man
# Summary of the method: as §1
# [5] = target: Fuc(a1-3)[Gal(b1-4)]GlcNAc(b1-2)Man(a1-3)[Fuc(a1-3)[Gal(b1-4)]GlcNAc(b1-2)Man(a1-6)]Man(b1-4)GlcNAc(b1-4)GlcNAc
# Summary of the method: as §1
# [6] = target: Fuc(a1-3)[Gal(b1-4)]GlcNAc(b1-2)Man(a1-3)[Fuc(a1-3)[Gal(b1-4)]GlcNAc(b1-2)Man(a1-6)]Man(b1-4)GlcNAc(b1-4)[Fuc(a1-6)]GlcNAc
# Summary of the method: as §1
# [7] = target: Fuc(a1-3)[Gal(b1-4)]GlcNAc(b1-3)Gal(b1-3)[Fuc(a1-4)]GlcNAc
# Summary of the method: as §1
# [8] = target: Fuc(a1-3)[Gal(b1-4)]GlcNAc(b1-3)Gal(b1-4)[Fuc(a1-3)]GlcNAc
# Summary of the method: as §1
# [9] = target: Fuc(a1-3)[Gal(b1-4)]GlcNAc(b1-3)Gal(b1-4)[Fuc(a1-3)]GlcNAc(b1-3)Gal(b1-4)[Fuc(a1-3)]GlcNAc
# Summary of the method: as §1
# [10] = target: Fuc(a1-3)[Gal(b1-4)]GlcNAc(b1-3)GalNAc
# Summary of the method: as §1
# [11] = target: Fuc(a1-3)[Gal(b1-4)]GlcNAc(b1-6)GalNAc
# Summary of the method: as §1
# [12] = target: Fuc(a1-3)[Gal(b1-4)]GlcNAc(b1-6)[Gal(b1-3)GlcNAc(b1-3)]Gal(b1-4)Glc
# Summary of the method: as §1
# [13] = target: Fuc(a1-3)[Gal(b1-4)]GlcNAc6S
# Summary of the method: as §1
# [14] = target: Fuc(a1-3)[Gal3S(b1-4)]Glc
# Summary of the method: as §1
# [15] = target: Fuc(a1-3)[Gal3S(b1-4)]GlcNAc
# Summary of the method: as §1
# [16] = target: Fuc(a1-3)[Gal3S(b1-4)]GlcNAc6S
# Summary of the method: as §1
# [17] = target: Fuc(a1-3)[GalNAc(b1-4)]GlcNAc
# Summary of the method: as §1
# [18] = target: Fuc(a1-3)[GalNAc(b1-4)]GlcNAc6S
# Summary of the method: as §1
# Fuc(a1-4)GlcNAc = target: Fuc(a1-4)GlcNAc
# Summary of the method: as §1
# Fuc(b1-3)GlcNAc = target: Fuc(b1-3)GlcNAc
# Summary of the method: as §1
# Gal(a1-2)Gal = target: Gal(a1-2)Gal
# Summary of the method: as §1
# Gal(a1-3)Gal = target: Gal(a1-3)Gal
# Summary of the method: as §1
# Gal(a1-3)Gal(b1-3)GlcNAc = target: Gal(a1-3)Gal(b1-3)GlcNAc
# Summary of the method: as §1
# [19] = target: Gal(a1-3)Gal(b1-3)GlcNAc(b1-2)Man
# Summary of the method: as §1
# [20] = target: Gal(a1-3)Gal(b1-3)GlcNAc(b1-2)Man(a1-3)[Gal(a1-3)Gal(b1-3)GlcNAc(b1-2)Man(a1-6)]Man(b1-4)GlcNAc(b1-4)GlcNAc
# Summary of the method: as §1
# [21] = target: Gal(a1-3)Gal(b1-3)GlcNAc(b1-3)GalNAc
# Summary of the method: as §1
# [22] = target: Gal(a1-3)Gal(b1-3)GlcNAc(b1-6)GalNAc
# Summary of the method: as §1
# [23] = target: Gal(a1-3)Gal(b1-3)[Fuc(a1-4)]GlcNAc(b1-2)Man(a1-3)[Gal(a1-3)Gal(b1-3)[Fuc(a1-4)]GlcNAc(b1-2)Man(a1-6)]Man(b1-4)GlcNAc(b1-4)GlcNAc
# Summary of the method: as §1
# Gal(a1-3)Gal(b1-4)Glc = target: Gal(a1-3)Gal(b1-4)Glc
# Summary of the method: as §1
# Gal(a1-3)Gal(b1-4)GlcNAc = target: Gal(a1-3)Gal(b1-4)GlcNAc
# Summary of the method: as §1
# [24] = target: Gal(a1-3)Gal(b1-4)GlcNAc(b1-2)Man
# Summary of the method: as §1
# [25] = target: Gal(a1-3)Gal(b1-4)GlcNAc(b1-2)Man(a1-3)[Gal(a1-3)Gal(b1-4)GlcNAc(b1-2)Man(a1-6)]Man(b1-4)GlcNAc(b1-4)GlcNAc
# Summary of the method: as §1
# [26] = target: Gal(a1-3)Gal(b1-4)GlcNAc(b1-3)GalNAc
# Summary of the method: as §1
# [27] = target: Gal(a1-3)Gal(b1-4)GlcNAc(b1-6)GalNAc
# Summary of the method: as §1
# [28] = target: Gal(a1-3)Gal(b1-4)[Fuc(a1-3)]GlcNAc
# Summary of the method: as §1
# [29] = target: Gal(a1-3)Gal(b1-4)[Fuc(a1-3)]GlcNAc(b1-2)Man(a1-3)[Gal(a1-3)Gal(b1-4)[Fuc(a1-3)]GlcNAc(b1-2)Man(a1-6)]Man(b1-4)GlcNAc(b1-4)GlcNAc
# Summary of the method: as §1
binder,measurement,setting,value
B1,glycan array binding signal (z-score),[1],-0.107
same,glycan array binding signal (z-score),Fuc(a1-3)GlcNAc,-1.58
same,glycan array binding signal (z-score),[2],-0.292
same,glycan array binding signal (z-score),[3],0.127
same,glycan array binding signal (z-score),[4],-1.22
same,glycan array binding signal (z-score),[5],-0.567
same,glycan array binding signal (z-score),[6],0.398
same,glycan array binding signal (z-score),[7],0.681
same,glycan array binding signal (z-score),[8],0.919
same,glycan array binding signal (z-score),[9],-0.338
same,glycan array binding signal (z-score),[10],0.304
same,glycan array binding signal (z-score),[11],-0.013
same,glycan array binding signal (z-score),[12],-0.881
same,glycan array binding signal (z-score),[13],0.374
same,glycan array binding signal (z-score),[14],0.168
same,glycan array binding signal (z-score),[15],-0.344
same,glycan array binding signal (z-score),[16],0.473
same,glycan array binding signal (z-score),[17],-0.152
same,glycan array binding signal (z-score),[18],-0.713
same,glycan array binding signal (z-score),Fuc(a1-4)GlcNAc,-0.729
same,glycan array binding signal (z-score),Fuc(b1-3)GlcNAc,0.224
same,glycan array binding signal (z-score),Gal(a1-2)Gal,0.325
same,glycan array binding signal (z-score),Gal(a1-3)Gal,-0.684
same,glycan array binding signal (z-score),Gal(a1-3)Gal(b1-3)GlcNAc,-0.29
same,glycan array binding signal (z-score),[19],1.08
same,glycan array binding signal (z-score),[20],1.63
same,glycan array binding signal (z-score),[21],0.338
same,glycan array binding signal (z-score),[22],0.361
same,glycan array binding signal (z-score),[23],1.91
same,glycan array binding signal (z-score),Gal(a1-3)Gal(b1-4)Glc,-0.816
same,glycan array binding signal (z-score),Gal(a1-3)Gal(b1-4)GlcNAc,-1.3
same,glycan array binding signal (z-score),[24],-0.924
same,glycan array binding signal (z-score),[25],-0.15
same,glycan array binding signal (z-score),[26],-0.15
same,glycan array binding signal (z-score),[27],0.348
same,glycan array binding signal (z-score),[28],-1.48
same,glycan array binding signal (z-score),[29],3.09

# Quoted at random: 2 entries already listed, in no set order.
binder,measurement,setting,value
B1,glycan array binding signal (z-score),[16],0.473
same,glycan array binding signal (z-score),[6],0.398
